Assay results from patent publication US12360023B2, “Method of pretreating blood sample” (LABTECHS Inc., priority 2017, dated 2025).
For at least one compound, name, drawing or mass did not settle the structure.

Assays:
Format in all cases: cell-based
[1] = tested on: E. coli; test: Blood culture of clinical sample (c), susceptibility of detected bacteria; settings: blood culture-positive
[2] = tested on: Staphylococcus capitis or Staphylococcus caprae; test: Rapid drug susceptibility test through ATP measurement from a blood culture bottle (Example 7, Case 3); settings: 33.3 μl of LVFX 20 μg/ml added, 35° C., 4 to 6 hours after the start of culture
[3] = tested on: E. coli; test: Drug susceptibility determination by ATP measurement after BAMB procedure, clinical blood sample (c); settings: 2.0 μg/ml LVFX, 4 hours from the start of culture
[4] = tested on: Staphylococcus capitis or Staphylococcus caprae; test: Conventional drug susceptibility test (Example 7); settings: Example 7 patient sample

C[C@H]1COc2c(N3CCN(C)CC3)c(F)cc3c(=O)c(C(=O)O)cn1c23 [Levofloxacin]
resistant: susceptibility of bacteria detected in blood culture [1] | drug susceptibility by microbial ATP levels [2] | drug susceptibility determined in the ATP measurement [3] | drug susceptibility in a conventional test [4]
